Measured data: PubChem BioAssay AID504786 (Drosophila RNAi Screening Center, 2011)
Screen: 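Fly genes required for HIF-dependent transcription when hypoxia is mimicked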 (primary screen). Cells: Drosophila S2 cells with a stable HIF luciferase reporter. Knock-down reagent: long dsRNA against Drosophila genes, about 0.2 µg dsRNA per well of a 384-well plate. Time to read-out: three days of knock-down, then 20 h of DFO before reading. Treatment: desferrioxamine (DFO) at 100 µM, an iron chelator that mimics hypoxia, for 20 h. Detection: 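HIF reporter luminescence in cells given 100 µM DFO for 20 h, using the mouse ldh-a hypoxia-response element, scored as per-plate z-scores; higher means greater loss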. Direction: z-score: higher = stronger loss of HIF reporter signal.
The deposit covers about 21,000 reagents; this is a random part of those with a known target gene and a result. 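Primary screen; positive scores mean lost reporter signal, so the sign may be inverted from the usual convention.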 Reagents against one gene are numbered here. Further read-outs or replicates are left out here.

z-score, replicate 1, by target gene and reagent
CG8929 (GeneID 37306): #1 5.1
D2hgdh (GeneID 31184): #1 -0.3
bin3 (GeneID 35552): #1 0.5
Elp3 (GeneID 33649): #1 0
CG18675 (GeneID 50169): #1 -0.2
CG4629 (GeneID 33284): #1 -0.2
Apt1 (GeneID 59176): #1 -0.3
CG7227 (GeneID 34088): #1 -0.3
Kal1 (GeneID 42865): #1 0
Prosbeta7 (GeneID 40639): #1 4.4
Hmgcl (GeneID 33978): #1 -0.1
Pi3K59F (GeneID 37733): #1 -0.2
shtd (GeneID 32473): #1 0
CG14892 (GeneID 42016): #1 0.3
CG11044 (GeneID 37281): #1 -0.4

2 of these entries, reformatted:
Target gene	reagent no.	z-score, replicate 1
Pi3K59F (GeneID 37733)	1	-0.2
shtd (GeneID 32473)	1	0

Continued.
z-score, replicate 1, by target gene and reagent
Ten-a (GeneID 32183): #1 -0.3; #2 0.7; #3 -0.2; #4 -0.3; #5 -0.2; #6 -0.3; #7 -0.4
Ctf4 (GeneID 36551): #1 -0.1
mbo (GeneID 41562): #1 0.2
CG4496 (GeneID 34000): #1 -0.4
FASN1 (GeneID 33524): #1 2.6
CR42745 (retired record) (GeneID 10178802): #1 -0.3
CG6418 (GeneID 39218): #1 0.2
CG4611 (GeneID 38601): #1 -0.4
CG31441 (GeneID 326139): #1 -0.3
Nup35 (GeneID 32851): #1 -0.3
CG16863 (GeneID 34784): #1 0.9
CG31784 (GeneID 318939): #1 -0.2
pns (GeneID 38178): #1 -0.2
